Values joined by “and” are separate entries in the source; they are usually repeats but may differ in a detail not shown here. Identical values can stand only once. Further values from the same series stand in other lists.
Assay: Oral absorption kinetics and pharmacokinetics of rhein in rats
Format: in vivo, Wistar rats
Procedure: Grouping of the animals and experimental procedure: Eighteen Wistar rats (male: female=1:1; body weight=180˜210 g) are randomly divided into 3 groups, 6 animal each group (male 3, female 3). The animals are fastened but supplied with free water for 10 h, and then are administrated ig with 35 mg/kg, 70 mg/kg or 140 mg/kg rhein. Blood samples are collected from carotid artery cannula at 0.033 h, 0.083 h, 0.25 h, 0.5 h, 0.75 h, 1 h, 2 h, 3 h, 4 h, 6 h, 8 h, 12 h and 14 h after administration, and centrifuged. 50 μl plasma is used for HPLC-fluorescence (FLD) analysis. The obtained plasma rhein concentration-time data are used for calculating pharmacokinetic parameters via corresponding pharmacokinetic programmes.

Plasma rhein concentration (gavage 70 mg/kg, 0.033 h, mean (x) of 6 rats): 24.68 µg/mL | Plasma rhein concentration (gavage 70 mg/kg, 0.083 h, mean (x) of 6 rats): 34.05 µg/mL | Plasma rhein concentration (gavage 70 mg/kg, 0.25 h, mean (x) of 6 rats): 45.32 µg/mL | Plasma rhein concentration (gavage 70 mg/kg, 0.50 h, mean (x) of 6 rats): 46.70 µg/mL | Plasma rhein concentration (gavage 70 mg/kg, 0.75 h, mean (x) of 6 rats): 37.54 µg/mL | Plasma rhein concentration (gavage 70 mg/kg, 2.0 h, mean (x) of 6 rats): 21.41 µg/mL | Plasma rhein concentration (gavage 70 mg/kg, 3.0 h, mean (x) of 6 rats): 16.74 µg/mL | Plasma rhein concentration (gavage 70 mg/kg, 4.0 h, mean (x) of 6 rats): 13.04 µg/mL | Plasma rhein concentration (gavage 70 mg/kg, 6.0 h, mean (x) of 6 rats): 7.89 µg/mL | Plasma rhein concentration (gavage 70 mg/kg, 8.0 h, mean (x) of 6 rats): 6.66 µg/mL | Plasma rhein concentration (gavage 70 mg/kg, 12.0 h, mean (x) of 6 rats): 3.87 µg/mL | Plasma rhein concentration (gavage 70 mg/kg, 14.0 h, mean (x) of 6 rats): 1.50 µg/mL | Plasma rhein concentration (gavage 140 mg/kg, 0.033 h, mean (x) of 6 rats): 15.72 µg/mL | Plasma rhein concentration (gavage 140 mg/kg, 0.083 h, mean (x) of 6 rats): 34.93 µg/mL | Plasma rhein concentration (gavage 140 mg/kg, 0.25 h, mean (x) of 6 rats): 56.09 µg/mL | Plasma rhein concentration (gavage 140 mg/kg, 0.50 h, mean (x) of 6 rats): 58.54 µg/mL | Plasma rhein concentration (gavage 140 mg/kg, 0.75 h, mean (x) of 6 rats): 43.70 µg/mL | Plasma rhein concentration (gavage 140 mg/kg, 1.0 h, mean (x) of 6 rats): 33.50 µg/mL | Plasma rhein concentration (gavage 140 mg/kg, 2.0 h, mean (x) of 6 rats): 29.21 µg/mL | Plasma rhein concentration (gavage 140 mg/kg, 3.0 h, mean (x) of 6 rats): 22.18 µg/mL | Plasma rhein concentration (gavage 140 mg/kg, 4.0 h, mean (x) of 6 rats): 20.47 µg/mL | Plasma rhein concentration (gavage 140 mg/kg, 6.0 h, mean (x) of 6 rats): 17.59 µg/mL | Plasma rhein concentration (gavage 140 mg/kg, 8.0 h, mean (x) of 6 rats): 11.93 µg/mL | Plasma rhein concentration (gavage 140 mg/kg, 12.0 h, mean (x) of 6 rats): 5.89 µg/mL | Plasma rhein concentration (gavage 140 mg/kg, 14.0 h, mean (x) of 6 rats): 4.42 µg/mL
SMILES: O=C(O)c1cc(O)c2c(c1)C(=O)c1cccc(O)c1C2=O [rhein]
Plasma rhein concentration (gavage 70 mg/kg, 0.033 h, individual rats 1-6, 70 mg/kg): 34.64 µg/mL and 37.28 µg/mL and 24.38 µg/mL and 23.12 µg/mL and 14.12 µg/mL and 14.57 µg/mL | Plasma rhein concentration (gavage 70 mg/kg, 0.083 h, individual rats 1-6, 70 mg/kg): 30.38 µg/mL and 48.63 µg/mL and 34.14 µg/mL and 42.68 µg/mL and 26.18 µg/mL and 22.27 µg/mL | Plasma rhein concentration (gavage 70 mg/kg, 0.25 h, individual rats 1-6, 70 mg/kg): 38.86 µg/mL and 65.89 µg/mL and 62.98 µg/mL and 49.02 µg/mL and 24.12 µg/mL and 31.05 µg/mL | Plasma rhein concentration (gavage 70 mg/kg, 0.50 h, individual rats 1-6, 70 mg/kg): 50.53 µg/mL and 43.37 µg/mL and 44.14 µg/mL and 56.14 µg/mL and 33.63 µg/mL and 52.37 µg/mL | Plasma rhein concentration (gavage 70 mg/kg, 0.75 h, individual rats 1-6, 70 mg/kg): 30.33 µg/mL and 40.26 µg/mL and 34.20 µg/mL and 46.37 µg/mL and 24.94 µg/mL and 49.16 µg/mL | Plasma rhein concentration (gavage 70 mg/kg, 2.0 h, individual rats 1-6, 70 mg/kg): 26.24 µg/mL and 26.80 µg/mL and 15.09 µg/mL and 12.71 µg/mL | Plasma rhein concentration (gavage 70 mg/kg, 3.0 h, individual rats 1-6, 70 mg/kg): 13.61 µg/mL and 21.97 µg/mL and 27.09 µg/mL and 11.54 µg/mL and 16.35 µg/mL and 9.87 µg/mL | Plasma rhein concentration (gavage 70 mg/kg, 4.0 h, individual rats 1-6, 70 mg/kg): 7.23 µg/mL and 12.76 µg/mL and 19.78 µg/mL and 13.32 µg/mL and 14.65 µg/mL and 10.51 µg/mL | Plasma rhein concentration (gavage 70 mg/kg, 6.0 h, individual rats 1-6, 70 mg/kg): 4.81 µg/mL and 6.74 µg/mL and 18.98 µg/mL and 7.55 µg/mL and 3.85 µg/mL and 5.39 µg/mL | Plasma rhein concentration (gavage 70 mg/kg, 8.0 h, individual rats 1-6, 70 mg/kg): 6.32 μg/ml (2×) and 7.32 μg/ml and 11.38 μg/ml and 6.09 μg/ml and 2.52 μg/ml | Plasma rhein concentration (gavage 70 mg/kg, 12.0 h, individual rats 1-6, 70 mg/kg): 2.52 µg/mL and 5.62 µg/mL and 6.21 µg/mL and 4.94 µg/mL and 1.14 µg/mL and 2.79 µg/mL | Plasma rhein concentration (gavage 70 mg/kg, 14.0 h, individual rats 1-6, 70 mg/kg): 0.44 µg/mL and 0.40 µg/mL and 0.93 µg/mL and 3.56 µg/mL and 1.75 µg/mL and 1.91 µg/mL | Plasma rhein concentration (gavage 140 mg/kg, 0.033 h, individual rats 1-6, 140 mg/kg): 13.55 µg/mL and 21.88 µg/mL and 9.42 µg/mL and 14.25 µg/mL and 22.00 µg/mL and 13.23 µg/mL | Plasma rhein concentration (gavage 140 mg/kg, 0.083 h, individual rats 1-6, 140 mg/kg): 30.55 µg/mL and 35.10 µg/mL and 46.58 µg/mL and 22.35 µg/mL and 50.52 µg/mL and 24.47 µg/mL | Plasma rhein concentration (gavage 140 mg/kg, 0.25 h, individual rats 1-6, 140 mg/kg): 61.22 µg/mL and 59.53 µg/mL and 69.37 µg/mL and 27.07 µg/mL and 54.64 µg/mL and 64.74 µg/mL | Plasma rhein concentration (gavage 140 mg/kg, 0.50 h, individual rats 1-6, 140 mg/kg): 51.20 µg/mL and 87.95 µg/mL and 82.06 µg/mL and 52.43 µg/mL and 31.95 µg/mL and 45.63 µg/mL | Plasma rhein concentration (gavage 140 mg/kg, 0.75 h, individual rats 1-6, 140 mg/kg): 33.65 µg/mL and 64.91 µg/mL and 48.63 µg/mL and 44.00 µg/mL and 31.47 µg/mL and 39.56 µg/mL | Plasma rhein concentration (gavage 140 mg/kg, 1.0 h, individual rats 1-6, 140 mg/kg): 30.46 µg/mL and 49.08 µg/mL and 43.04 µg/mL and 18.64 µg/mL and 24.25 µg/mL and 35.51 µg/mL | Plasma rhein concentration (gavage 140 mg/kg, 2.0 h, individual rats 1-6, 140 mg/kg): 22.45 µg/mL and 35.15 µg/mL and 37.37 µg/mL and 14.29 µg/mL and 28.00 µg/mL and 37.98 µg/mL | Plasma rhein concentration (gavage 140 mg/kg, 3.0 h, individual rats 1-6, 140 mg/kg): 20.79 µg/mL and 25.58 µg/mL and 28.39 µg/mL and 16.91 µg/mL and 17.23 µg/mL and 24.19 µg/mL | Plasma rhein concentration (gavage 140 mg/kg, 4.0 h, individual rats 1-6, 140 mg/kg): 15.52 µg/mL and 24.69 µg/mL and 20.82 µg/mL and 16.50 µg/mL and 26.59 µg/mL and 18.69 µg/mL | Plasma rhein concentration (gavage 140 mg/kg, 6.0 h, individual rats 1-6, 140 mg/kg): 10.85 µg/mL and 19.98 µg/mL and 20.49 µg/mL and 17.58 µg/mL and 17.34 µg/mL and 19.34 µg/mL | Plasma rhein concentration (gavage 140 mg/kg, 8.0 h, individual rats 1-6, 140 mg/kg): 6.47 µg/mL and 15.42 µg/mL and 14.46 µg/mL and 10.29 µg/mL and 13.74 µg/mL and 11.21 µg/mL | Plasma rhein concentration (gavage 140 mg/kg, 12.0 h, individual rats 1-6, 140 mg/kg): 4.11 µg/mL and 2.48 µg/mL and 4.35 µg/mL and 6.63 µg/mL and 11.63 µg/mL and 6.14 µg/mL | Plasma rhein concentration (gavage 140 mg/kg, 14.0 h, individual rats 1-6, 140 mg/kg): 3.40 µg/mL and 3.15 µg/mL and 4.05 µg/mL and 4.81 µg/mL and 6.83 µg/mL and 4.27 µg/mL
